The assay has as its target GST-Bcl2(1-205; Santa Cruz Biotechnology) (UniProt P10415). The experiment in a line: competition ELISA: peptide in solution with GST-Bcl2(1-205), plate-bound biotinylated Bad peptide.

Chains of the proteins cited; added tags and fusions are not shown. Residues count along the entry.
UniProt P10415, residues 1-205: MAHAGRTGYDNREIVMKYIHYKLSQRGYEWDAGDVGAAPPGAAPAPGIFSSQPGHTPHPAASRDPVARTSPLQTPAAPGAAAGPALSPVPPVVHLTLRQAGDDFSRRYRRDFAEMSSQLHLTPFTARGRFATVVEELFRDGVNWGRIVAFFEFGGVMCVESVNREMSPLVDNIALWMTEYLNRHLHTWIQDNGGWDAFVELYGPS

These are yes or no findings as the source states them, for the method shown. Some results given as binding are weak or reduced against the parent protein; the word gives no strength.

Consider NLWAAQRYGRELRRMSDEFVDSFKK [wild type BAD peptide (SEQ ID NO: 1)], for which the binding entry is listed as “binds”.

Turning to NLWAAQRYGRELRRMADEFVDAFKK [modified BAD peptide 2Ser/Ala (SEQ ID NO: 2)], the binding entry is “binds”.

For the origin of these results see patent US20060198832A1, “Peptide drugs for chronic lymphocytic leukemia (CLL) and other cancers” (priority 2004, published 2006).
